Experimental data published in the supplement of paper PMC10849652.
The list shows a part of the results.

Sequences of proteins named here, by UniProt entry; tags and fusion partners are left off. A change or cut given only in a name is not applied to a line headed by its entry.
UniProt Q7Z3C6: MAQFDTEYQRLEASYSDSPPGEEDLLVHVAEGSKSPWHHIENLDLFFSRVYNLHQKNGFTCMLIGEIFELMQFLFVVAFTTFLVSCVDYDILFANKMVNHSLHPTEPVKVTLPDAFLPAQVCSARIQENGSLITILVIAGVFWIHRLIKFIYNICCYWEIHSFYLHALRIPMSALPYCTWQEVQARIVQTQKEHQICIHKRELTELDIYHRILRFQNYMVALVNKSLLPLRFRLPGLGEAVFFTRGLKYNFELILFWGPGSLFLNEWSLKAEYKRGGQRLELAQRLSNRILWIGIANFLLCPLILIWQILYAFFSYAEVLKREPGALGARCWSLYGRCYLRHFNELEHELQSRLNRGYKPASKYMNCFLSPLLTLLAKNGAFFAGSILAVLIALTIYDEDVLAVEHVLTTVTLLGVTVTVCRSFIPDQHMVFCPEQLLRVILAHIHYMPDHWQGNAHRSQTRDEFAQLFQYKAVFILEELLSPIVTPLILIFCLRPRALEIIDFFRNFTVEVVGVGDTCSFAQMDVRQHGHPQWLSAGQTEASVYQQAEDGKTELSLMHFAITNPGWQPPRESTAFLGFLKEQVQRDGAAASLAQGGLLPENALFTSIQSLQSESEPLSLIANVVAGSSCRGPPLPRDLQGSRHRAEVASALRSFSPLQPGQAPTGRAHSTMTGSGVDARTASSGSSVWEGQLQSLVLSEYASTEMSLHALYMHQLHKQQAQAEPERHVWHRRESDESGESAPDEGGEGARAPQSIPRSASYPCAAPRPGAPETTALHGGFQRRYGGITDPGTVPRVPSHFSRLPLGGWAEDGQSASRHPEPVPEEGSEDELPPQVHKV
UniProt Q9H993: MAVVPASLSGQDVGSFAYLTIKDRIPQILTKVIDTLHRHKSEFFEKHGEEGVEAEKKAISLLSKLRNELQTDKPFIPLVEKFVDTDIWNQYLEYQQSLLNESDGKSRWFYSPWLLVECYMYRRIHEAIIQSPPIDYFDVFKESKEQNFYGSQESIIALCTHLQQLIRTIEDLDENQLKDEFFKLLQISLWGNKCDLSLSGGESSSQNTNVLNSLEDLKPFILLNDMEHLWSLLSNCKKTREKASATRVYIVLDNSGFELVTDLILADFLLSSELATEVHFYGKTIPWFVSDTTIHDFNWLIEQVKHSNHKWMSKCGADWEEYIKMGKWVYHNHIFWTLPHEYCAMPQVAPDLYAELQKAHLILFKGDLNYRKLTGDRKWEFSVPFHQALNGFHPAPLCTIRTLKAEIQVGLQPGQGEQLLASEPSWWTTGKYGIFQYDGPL
UniProt O00244: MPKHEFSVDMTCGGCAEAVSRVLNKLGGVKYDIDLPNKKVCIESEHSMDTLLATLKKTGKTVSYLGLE
UniProt P56378: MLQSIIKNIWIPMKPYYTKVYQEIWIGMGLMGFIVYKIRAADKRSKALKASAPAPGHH
UniProt Q2TAZ0: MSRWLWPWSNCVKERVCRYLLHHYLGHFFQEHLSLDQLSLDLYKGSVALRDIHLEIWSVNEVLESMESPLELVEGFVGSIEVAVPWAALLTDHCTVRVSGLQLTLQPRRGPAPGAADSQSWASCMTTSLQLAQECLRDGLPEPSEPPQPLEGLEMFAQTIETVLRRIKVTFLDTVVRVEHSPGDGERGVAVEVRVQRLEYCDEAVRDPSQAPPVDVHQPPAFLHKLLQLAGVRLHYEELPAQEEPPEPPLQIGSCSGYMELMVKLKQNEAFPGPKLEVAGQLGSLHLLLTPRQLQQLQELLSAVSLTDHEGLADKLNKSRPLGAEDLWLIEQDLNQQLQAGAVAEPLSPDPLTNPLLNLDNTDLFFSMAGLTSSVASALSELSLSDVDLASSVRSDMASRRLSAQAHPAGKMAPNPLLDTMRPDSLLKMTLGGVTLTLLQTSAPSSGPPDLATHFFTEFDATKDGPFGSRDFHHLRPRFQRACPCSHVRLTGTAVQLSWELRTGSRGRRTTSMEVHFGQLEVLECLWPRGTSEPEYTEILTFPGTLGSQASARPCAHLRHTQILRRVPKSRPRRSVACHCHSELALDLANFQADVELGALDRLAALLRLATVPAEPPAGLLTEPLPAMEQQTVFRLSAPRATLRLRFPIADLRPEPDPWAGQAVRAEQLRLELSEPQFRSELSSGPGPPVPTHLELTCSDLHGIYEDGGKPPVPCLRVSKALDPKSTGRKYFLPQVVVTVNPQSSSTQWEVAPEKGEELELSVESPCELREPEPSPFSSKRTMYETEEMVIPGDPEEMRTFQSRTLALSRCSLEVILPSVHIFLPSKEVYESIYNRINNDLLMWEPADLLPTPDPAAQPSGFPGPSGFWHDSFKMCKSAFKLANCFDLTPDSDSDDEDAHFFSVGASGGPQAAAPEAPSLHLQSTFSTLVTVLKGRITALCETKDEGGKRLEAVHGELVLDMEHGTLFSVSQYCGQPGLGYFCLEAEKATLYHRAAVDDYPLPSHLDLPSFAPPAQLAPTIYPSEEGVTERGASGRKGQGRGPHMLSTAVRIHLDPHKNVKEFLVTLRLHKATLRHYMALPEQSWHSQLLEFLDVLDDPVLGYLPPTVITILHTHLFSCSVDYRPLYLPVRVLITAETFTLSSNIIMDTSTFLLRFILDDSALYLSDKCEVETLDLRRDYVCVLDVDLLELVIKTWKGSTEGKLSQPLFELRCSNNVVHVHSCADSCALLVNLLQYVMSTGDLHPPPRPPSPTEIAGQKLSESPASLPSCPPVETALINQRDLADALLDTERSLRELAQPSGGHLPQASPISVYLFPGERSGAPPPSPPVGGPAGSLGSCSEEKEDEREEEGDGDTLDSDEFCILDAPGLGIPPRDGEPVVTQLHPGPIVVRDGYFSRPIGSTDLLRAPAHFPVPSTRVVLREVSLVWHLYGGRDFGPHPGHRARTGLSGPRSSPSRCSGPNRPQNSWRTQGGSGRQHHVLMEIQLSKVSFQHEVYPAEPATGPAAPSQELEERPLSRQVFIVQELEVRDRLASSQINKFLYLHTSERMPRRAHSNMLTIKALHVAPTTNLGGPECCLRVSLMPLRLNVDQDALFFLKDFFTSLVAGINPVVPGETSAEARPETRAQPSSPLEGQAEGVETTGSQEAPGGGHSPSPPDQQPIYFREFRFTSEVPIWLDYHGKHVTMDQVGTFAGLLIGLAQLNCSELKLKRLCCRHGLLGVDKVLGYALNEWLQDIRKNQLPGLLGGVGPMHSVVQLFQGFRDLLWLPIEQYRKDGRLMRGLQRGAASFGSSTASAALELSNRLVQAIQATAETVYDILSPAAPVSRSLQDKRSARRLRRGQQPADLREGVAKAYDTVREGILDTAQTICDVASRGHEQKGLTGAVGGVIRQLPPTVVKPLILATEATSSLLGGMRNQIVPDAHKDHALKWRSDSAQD
UniProt Q9NXU5: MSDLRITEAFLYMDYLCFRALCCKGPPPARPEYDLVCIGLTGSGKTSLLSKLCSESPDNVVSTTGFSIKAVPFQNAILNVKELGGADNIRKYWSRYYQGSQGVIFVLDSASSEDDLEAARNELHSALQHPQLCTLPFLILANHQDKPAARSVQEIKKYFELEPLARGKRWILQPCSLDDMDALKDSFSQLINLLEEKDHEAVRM
UniProt P25705: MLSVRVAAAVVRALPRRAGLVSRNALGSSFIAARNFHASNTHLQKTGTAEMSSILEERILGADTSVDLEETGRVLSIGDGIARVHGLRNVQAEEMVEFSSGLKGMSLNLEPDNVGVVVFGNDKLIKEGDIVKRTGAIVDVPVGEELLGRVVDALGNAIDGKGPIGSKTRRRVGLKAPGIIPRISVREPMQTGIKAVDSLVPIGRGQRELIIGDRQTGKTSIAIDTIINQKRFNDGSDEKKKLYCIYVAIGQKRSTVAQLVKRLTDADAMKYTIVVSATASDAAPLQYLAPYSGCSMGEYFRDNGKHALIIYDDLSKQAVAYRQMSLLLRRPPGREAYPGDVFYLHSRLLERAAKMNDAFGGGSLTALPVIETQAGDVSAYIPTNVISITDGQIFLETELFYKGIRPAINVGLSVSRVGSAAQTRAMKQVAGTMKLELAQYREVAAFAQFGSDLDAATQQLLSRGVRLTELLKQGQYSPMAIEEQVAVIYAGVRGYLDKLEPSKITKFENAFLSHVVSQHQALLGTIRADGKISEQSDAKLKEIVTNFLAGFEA
UniProt P36404: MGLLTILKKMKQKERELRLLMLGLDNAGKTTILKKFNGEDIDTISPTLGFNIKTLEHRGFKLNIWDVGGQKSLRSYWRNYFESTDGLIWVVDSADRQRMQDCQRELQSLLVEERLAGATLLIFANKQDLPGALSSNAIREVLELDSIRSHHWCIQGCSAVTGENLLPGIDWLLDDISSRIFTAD
UniProt P21283, whole entry, looked up: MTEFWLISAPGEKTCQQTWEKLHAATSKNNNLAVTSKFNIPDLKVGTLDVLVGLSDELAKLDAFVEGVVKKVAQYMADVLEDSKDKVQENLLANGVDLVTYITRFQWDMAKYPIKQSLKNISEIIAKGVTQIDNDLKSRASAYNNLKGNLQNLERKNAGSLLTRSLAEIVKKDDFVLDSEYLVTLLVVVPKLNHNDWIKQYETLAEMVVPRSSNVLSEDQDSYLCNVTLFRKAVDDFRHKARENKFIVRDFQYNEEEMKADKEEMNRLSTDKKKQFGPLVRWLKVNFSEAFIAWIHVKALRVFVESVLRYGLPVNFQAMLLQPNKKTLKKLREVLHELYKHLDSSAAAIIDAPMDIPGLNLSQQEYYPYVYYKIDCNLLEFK
UniProt P16615: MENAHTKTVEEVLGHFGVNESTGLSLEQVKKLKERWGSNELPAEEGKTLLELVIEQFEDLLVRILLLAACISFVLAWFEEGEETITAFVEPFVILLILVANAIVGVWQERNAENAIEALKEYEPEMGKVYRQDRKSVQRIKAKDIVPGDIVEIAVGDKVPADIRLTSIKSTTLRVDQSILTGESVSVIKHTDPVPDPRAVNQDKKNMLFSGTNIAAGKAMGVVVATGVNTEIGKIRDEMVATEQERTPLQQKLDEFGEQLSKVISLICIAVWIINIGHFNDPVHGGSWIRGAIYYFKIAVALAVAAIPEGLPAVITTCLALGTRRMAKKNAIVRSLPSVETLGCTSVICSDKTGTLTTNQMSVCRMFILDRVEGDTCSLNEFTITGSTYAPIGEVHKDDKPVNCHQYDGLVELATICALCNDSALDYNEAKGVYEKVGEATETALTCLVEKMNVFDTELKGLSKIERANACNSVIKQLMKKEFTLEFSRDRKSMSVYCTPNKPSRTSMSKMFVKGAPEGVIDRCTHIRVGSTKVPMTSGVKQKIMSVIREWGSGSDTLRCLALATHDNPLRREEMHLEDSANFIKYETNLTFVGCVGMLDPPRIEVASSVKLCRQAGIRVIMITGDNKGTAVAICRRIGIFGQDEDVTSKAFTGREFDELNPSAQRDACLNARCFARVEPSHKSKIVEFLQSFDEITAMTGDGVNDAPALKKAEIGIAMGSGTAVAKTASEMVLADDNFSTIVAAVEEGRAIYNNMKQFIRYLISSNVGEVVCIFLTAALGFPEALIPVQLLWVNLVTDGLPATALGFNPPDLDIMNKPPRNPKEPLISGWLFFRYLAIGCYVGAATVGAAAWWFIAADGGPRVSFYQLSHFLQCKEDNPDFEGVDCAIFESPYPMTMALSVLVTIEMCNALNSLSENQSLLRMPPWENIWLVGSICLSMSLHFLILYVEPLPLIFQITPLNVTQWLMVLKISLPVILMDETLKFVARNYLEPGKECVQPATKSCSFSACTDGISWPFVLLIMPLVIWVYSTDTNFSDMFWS
UniProt P21281, whole entry, looked up: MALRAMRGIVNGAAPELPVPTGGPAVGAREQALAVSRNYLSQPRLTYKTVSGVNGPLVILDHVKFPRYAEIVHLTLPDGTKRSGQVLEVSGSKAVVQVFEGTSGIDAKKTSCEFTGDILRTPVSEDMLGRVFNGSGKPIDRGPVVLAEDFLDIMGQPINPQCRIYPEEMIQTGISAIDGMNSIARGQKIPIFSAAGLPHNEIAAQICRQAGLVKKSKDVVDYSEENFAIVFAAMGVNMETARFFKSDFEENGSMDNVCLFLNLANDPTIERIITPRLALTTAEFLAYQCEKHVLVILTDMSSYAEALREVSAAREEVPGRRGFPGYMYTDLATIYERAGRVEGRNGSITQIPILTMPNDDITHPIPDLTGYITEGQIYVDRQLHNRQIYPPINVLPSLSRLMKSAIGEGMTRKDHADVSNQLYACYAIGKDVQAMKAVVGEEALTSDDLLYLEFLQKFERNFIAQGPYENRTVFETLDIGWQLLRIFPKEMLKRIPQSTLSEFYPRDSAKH
UniProt P14415, whole entry, looked up: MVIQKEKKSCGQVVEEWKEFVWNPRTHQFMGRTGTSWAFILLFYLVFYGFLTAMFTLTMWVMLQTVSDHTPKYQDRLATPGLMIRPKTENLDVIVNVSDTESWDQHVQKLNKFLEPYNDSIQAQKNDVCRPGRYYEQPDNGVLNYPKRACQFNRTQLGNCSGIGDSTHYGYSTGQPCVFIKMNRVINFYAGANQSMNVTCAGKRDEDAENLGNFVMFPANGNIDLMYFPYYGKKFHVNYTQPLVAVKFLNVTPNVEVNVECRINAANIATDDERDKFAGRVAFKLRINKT

Each target was assayed with NC1(c2ccc(-c3nc4ccn5c(=O)[nH]nc5c4cc3-c3ccccc3)cc2)CCC1 (assay: log2 fold change, soluble protein after heating vs DMSO (PISA); higher = thermal stabilisation; K562 cells, 10 uM, 30 min; active = over 0.2 and 3.5 SD of the protein, either way, in both replicates (recomputed)).
Summary of the method: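 Thermal stability values are relative to control samples and come from duplicates. They are expressed as log2 fold changes. For measurement, K562 cells (2×10^6 cells/mL) received 10 μM compound for 30 min, and aliquots were heated for 3 min over 48°C-58°C, pooled, and extracted at 4°C in PBS with 0.5% NP-40. Soluble protein, the supernatant after 21,000xg for 90 min, was quantified by TMTpro 16plex LC-MS/MS with equalised channel sums.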

log2 fold change, inactive:
ATG9A (UniProt Q7Z3C6) -0.262, ASPH (UniProt Q12797) -0.012, ATG16L1 (UniProt Q676U5) -0.063, ARPC1B (UniProt O15143) -0.015, ARPC4 isoform 3 (UniProt P59998) -0.027, ATP7B (UniProt P35670) -0.111, ARMT1 (UniProt Q9H993) -0.187, ATOX1 (UniProt O00244) -0.032, ATP5MPL (UniProt P56378) 0.039, ATG2A isoform 3 (UniProt Q2TAZ0) -0.081, ARL15 (UniProt Q9NXU5) -0.094, ATP5F1A (UniProt P25705) 0.056, ATG2B (UniProt Q96BY7) -0.075, ARL2 (UniProt P36404) -0.075, ATP6V1C1 (UniProt P21283) -0.173, ATP2A2 (UniProt P16615) -0.069, ATP6V1B2 (UniProt P21281) -0.084, ATP6V0A1 isoform 3 (UniProt Q93050) -0.184, ARPC5 (UniProt O15511) 0.025, ATP1B2 (UniProt P14415) 0.01, ASNA1 (UniProt O43681) -0.023, ATP2A3 isoform 2 (UniProt Q93084) -0.096
